Laboratory results: PubChem BioAssay AID1347423 (Functional Genomics Laboratory (NCATS/FGL), 2020)
Among all 52,000 sequences or so, about 210 (0.4%) were called active.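 Rule for the calls: active = gene whose silencing raises cell survival under the drug, median off-target-corrected z-score across its silencing RNAs 2 or more; inactive = the rest.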 The list shows a part of the results.

Experiment: Resistance to Poly (ADP-Ribose) Polymerase inhibitor: Gene Identification via Genome-wide siRNA Screen
Details: mouse BRCA2 R2336H ES cells, olaparib, CellTiter-Glo viability; stronger effect = higher value
How it was run: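 Mouse BRCA2 R2336H ES cells were reverse-transfected with siRNA (20 nM final), treated at 48 h with 500 nM olaparib, and read by CellTiter-Glo after 72 h. Scores: MAD-based z per siRNA, median per gene, seed off-target correction.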
For “CGCUGAAAUAAAGACCAGATT against 2400010G15Rik”, the z-score was active: 1.99. With GCCUGAUUUUUUGUCUCUATT against Slc39a7 the z-score was inactive: -1.19. With GCAGCUAACUCCAAGUCAGTT against Tfam the z-score was inactive: 0.127. In the case of GGAUCCGUUCAGCAGAAGGTT against Olfr1045, the z-score is reported as inactive: 0.31. For GCGACUUGGAGAGCAUUUGTT against Trim3, the z-score was inactive: -2. With GCACAUGUGGAUUUCCAUCTT against Olfr547 the z-score was inactive: -0.0444. In the case of GGAGAUGGAGAUUAACGACTT against Atp4a, the z-score is reported as inactive: 0.769. For “CCACUACAAUGUAGCGACGTT against 9130217G22Rik”, the z-score was inactive: 0.713. With GCCAUUCUCCAUUGAGCUGTT against Pik3cd the z-score was inactive: -0.396. For GCCACAGGAAUACAAUGUCTT against Il3ra, the z-score was inactive: 0.437. In the case of GGAAACUUUCUAAAUGCUGTT against Pja1, the z-score is reported as inactive: 1.23. With GGUAUACAGGAUGUUAAGGTT against Pdlim4 the z-score was inactive: 1.23. For “GCGGCUUUAUUCACACUUUTT against 2700038N03Rik”, the z-score was inactive: 1.21. For GGAGACAACAACAAGACAUTT against Tbk1, the z-score was inactive: -0.205. For GCUAAGAGUGCAGGAUUGGTT against Lhx2, the z-score was inactive: -2. With GCUACCUACGAUGUUCAAATT against Tomm34 the z-score was inactive: 0.825. With GGAUAAAGUCACCUUCAUCTT against Itgam the z-score was inactive: 0.426. For GCAGAAAGCAACACGCCCUTT against MGC91106, the z-score was inactive: 0.689. In the case of GGACUACUCCAGAAAGCUUTT against Wdfy3, the z-score is reported as inactive: 0.199. With GGAUCGGCACUGGCAUGAATT against Fhl2 the z-score was inactive: -1.37. With GGUGAUAACUGUAUUUCAGTT against Ftsj1 the z-score was inactive: -0.808. For GCGCAGAGAUUACCUUAAGTT against Gtf3a, the z-score was inactive: -1.88. With “GCAAGUCAGCUACAACUGUTT against D11Bwg0434e” the z-score was inactive: 0.0907. For “GGUGACCUUACCUAAUGUATT against 2810422O20Rik”, the z-score was inactive: 1.09. With GGAGAAAGAAGCUAGUGAGTT against MGC107702 the z-score was inactive: 0.0546. In the case of GGGUUUAUGGGCAUGUCCCTT against Adipor2, the z-score is reported as inactive: 0.373. With CGUGUGGACCAAUGUGGUATT against BC035537 the z-score was inactive: -0.297. In the case of GGGAUGGAAGAAUGUAAUGTT against Slc30a9, the z-score is reported as inactive: -0.554. With GGUUGGCCUGAGUGAAAUGTT against Spata5 the z-score was inactive: -0.729. With GCCACUGUUUGUAGGAACGTT against Mmp11 the z-score was inactive: 0.827. For CCUCUCAUGUAUCCUGUGATT against Olfr292, the z-score was inactive: -0.652. For GCGGGUUCUUUAUGACCCUTT against Car11, the z-score was inactive: 0.568. With CGGCGGUUUGCUCUAUUCGTT against Pou3f2 the z-score was inactive: 0.319. In the case of CCCUCAUCGUGUCUAUCAUTT against Unc13a, the z-score is reported as inactive: 0.799. With GCACUCCUGAACCAUUCUCTT against Tubb4 the z-score was inactive: -2.32. For GCAGAUCUUGUGAUUAAUGTT against Ildr1, the z-score was inactive: 1.53. For GGUUGUUUGGAUUUUCUUCTT against Tars, the z-score was inactive: -2.01. For GGAAAAGGUGGAAGGCGGATT against Madd, the z-score was inactive: -0.565. With GGAGUAAGACGGAAACGAGTT against Map3k1 the z-score was inactive: -1.85. In the case of GCGGAGAAUGGAAAAACUUTT against Enpep, the z-score is reported as inactive: 0.0423. With GGAGAACAAGGCAUUCCUGTT against Col10a1 the z-score was inactive: 1.4. In the case of CGGAUUCGGGAAUUCUAUCTT against Nspc1, the z-score is reported as inactive: 0.478. In the case of GGGCUCUUUGAAGUUGGAUTT against Rpe65, the z-score is reported as inactive: -1.27. For “CGUUCAAGCUCAAAGAGCATT against 1810035L17Rik”, the z-score was inactive: -0.165. For GGUGAACAGAAGGACAGAUTT against MP4, the z-score was inactive: -2.11. For “GCAAGUAUAUUAGAUGAGCTT against 1110030K22Rik”, the z-score was inactive: 0.0788. For GGUGCCCGAAGUUAUGUUGTT against Ppp1r3f, the z-score was inactive: 0.644. In the case of GGAGACCAUCCAAUUAUGATT against Mak10, the z-score is reported as inactive: 0.0257. For CGUAUCAAGAAGUGCUGUGTT against Kcnk9, the z-score was inactive: 1.01. With CCGAUACAGGGACAGUCAUTT against Mrpl38 the z-score was inactive: 0.771. With CGGACACUCGGAUCAUAUUTT against BC038925 the z-score was inactive: -1.14. With GCUGGAGUUUCAGUCAAGGTT against Ctso the z-score was inactive: -0.321. With CCAAUAUUCAGUCCUAUAUTT against Csen the z-score was inactive: -2.46. For “CGGGUCCUUUUCCACUACATT against 4932417H02Rik”, the z-score was inactive: -1.75. With “GCUAGAACUGCUUACACCGTT against 4432406C08Rik” the z-score was inactive: 2.13. In the case of GGAUAUCGUCUGCUACCUGTT against Dgkb, the z-score is reported as inactive: 0.683. In the case of GGAAAUCACCAUGCCCUCUTT against S100a8, the z-score is reported as inactive: -0.648. In the case of GGCUUUCGGCAGCAUCUUGTT against Tk1, the z-score is reported as inactive: 0.902. For GGUACACAAUCUCCAAUGCTT against Rpp30, the z-score was inactive: -0.307. For GGAUUCAAUAUCAAUUGGATT against Htr2c, the z-score was inactive: 0.115. With GGAUCUAAAGGGUAGUGUCTT against Rnf35 the z-score was inactive: 0.767. In the case of GCAUCUCUAAUGUCCAGCATT against AI159731, the z-score is reported as inactive: -0.881. With “GGAGAAGAAGCAGAGAGAATT against C530028I08Rik” the z-score was inactive: -0.263. With GGAAAGAAAGGAGAGGAGGTT against Tmem18 the z-score was inactive: 0.618. In the case of AAGCACAAACUCACAGCCCTT against Hoxa4, the z-score is reported as inactive: 0.452. For GGAUUGGUAGCUUAUGUGGTT against Hnrpr, the z-score was inactive: -0.158. For CCAUCAAACAGAUCUUAUUTT against Ube2i, the z-score was inactive: -3.11.
